Experimental data published in article PMC11368183.
These are yes or no findings as the source states them, for the method shown. Binding seen in cells or lysates may run through a third protein. Some binding calls cover weakened binding; strength is not graded here. Sequences can lack the tags named with a protein.

Molecular target: T1, FLAG-Lin (Lines) (Drosophila) (UniProt Q9V4Z9)
T1 sequence: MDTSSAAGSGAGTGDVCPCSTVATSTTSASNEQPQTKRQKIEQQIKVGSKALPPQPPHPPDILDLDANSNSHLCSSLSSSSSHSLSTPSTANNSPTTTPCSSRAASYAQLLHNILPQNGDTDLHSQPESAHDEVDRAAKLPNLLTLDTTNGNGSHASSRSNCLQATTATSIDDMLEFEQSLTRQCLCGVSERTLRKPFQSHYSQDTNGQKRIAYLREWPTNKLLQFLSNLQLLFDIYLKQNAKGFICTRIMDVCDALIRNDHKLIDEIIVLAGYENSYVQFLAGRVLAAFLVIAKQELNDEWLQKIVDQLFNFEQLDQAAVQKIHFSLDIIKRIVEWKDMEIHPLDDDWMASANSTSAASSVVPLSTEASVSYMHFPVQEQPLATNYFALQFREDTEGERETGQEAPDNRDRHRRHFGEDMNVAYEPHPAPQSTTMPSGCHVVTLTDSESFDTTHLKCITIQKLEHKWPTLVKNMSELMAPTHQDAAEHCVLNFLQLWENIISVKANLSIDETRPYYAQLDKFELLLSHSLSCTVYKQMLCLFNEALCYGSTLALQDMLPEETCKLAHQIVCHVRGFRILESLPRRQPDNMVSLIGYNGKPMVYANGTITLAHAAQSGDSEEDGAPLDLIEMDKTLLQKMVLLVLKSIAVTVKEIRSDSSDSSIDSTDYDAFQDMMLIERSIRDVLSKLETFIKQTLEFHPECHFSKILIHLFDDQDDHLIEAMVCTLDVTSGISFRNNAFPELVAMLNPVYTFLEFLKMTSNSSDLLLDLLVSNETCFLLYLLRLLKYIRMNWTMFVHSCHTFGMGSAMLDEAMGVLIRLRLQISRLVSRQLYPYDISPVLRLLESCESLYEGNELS
Test: co-IP; S2R+ cells expressing Lin and Bowl without or with coexpressed Drm; cells treated with PS-341 (Figure 4G)

binding: binds
B1: Drumstick (Drm) (protein, UniProt Q9VQS6 1-81)
chain: MFAVMRIDNDDCRSDFRRKMRPKCEFICKYCQRRFTKPYNLMIHERTHKSPEITYSCEVCGKYFKQRDNLRQHRCSQCVWR
